PubChem BioAssay AID504784 – Drosophila RNAi Screening Center – 2011

Aim: 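Genome-wide knock-down for genes giving too much or too little stored lipid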 (primary screen)
Cell system: Drosophila Kc167 embryonic cells
Knock-down reagent: long dsRNA against Drosophila genes, about 250 ng dsRNA per well
Time to read-out: 4 days
Conditions: cells fed 400 µM oleic acid bound to BSA
Detection: 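Cells imaged and segmented; ratio of lipid droplet area to nuclear area, log-transformed, then normalised as a B-score over the screen; higher means more stored lipid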
Reading the numbers: droplet/nuclear area B-score: higher = more stored lipid (overstorage)
The deposit covers about 17,000 reagents; below is a random part of those with a known target gene and a result. 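Each column is one replicate's B-score; the combined score over replicates was not deposited, so single values may mislead.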 A plus sign joins genes that one reagent is predicted to hit. Not all columns of the deposit are shown.

Against CG17819 [DRSC15279], the entry reads droplet/nuclear area B-score, replicate 1 = -1.04.
Depletion of unc80 (uncoordinated 80) [DRSC15329] gave: droplet/nuclear area B-score, replicate 1 = -0.602.
For CG14102 [DRSC10103], the entry reads droplet/nuclear area B-score, replicate 1 = 0.128.
Against CG16926 [DRSC06637], the values are droplet/nuclear area B-score, replicate 1 = 3.11.
Knock-down of RpS25 (Ribosomal protein S25) [DRSC16837] resulted in: droplet/nuclear area B-score, replicate 1 = 0.508.
CG14456 [DRSC11713] gave droplet/nuclear area B-score, replicate 1 = 0.656.
CG30356 [DRSC05119] scored droplet/nuclear area B-score, replicate 1 = 3.08.
With knock-down of ZnT41F (Zinc transporter 41F) [DRSC04850], the record shows droplet/nuclear area B-score, replicate 1 = -0.469.
CG8399 [DRSC07163] showed droplet/nuclear area B-score, replicate 1 = 6.8.
After knock-down of CG3040 [DRSC22486], the screen gave droplet/nuclear area B-score, replicate 1 = 0.0841.
After knock-down of Fur1 (Furin 1) [DRSC13707], the record shows droplet/nuclear area B-score, replicate 1 = -1.09.
With knock-down of Fur1 (Furin 1) [DRSC16676], the screen gave droplet/nuclear area B-score, replicate 1 = -1.11.
Gfat1 (Glutamine:fructose-6-phosphate aminotransferase 1) [DRSC21219] showed droplet/nuclear area B-score, replicate 1 = -0.463.
For RpLP2 (Ribosomal protein LP2) [DRSC07539] the deposit lists droplet/nuclear area B-score, replicate 1 = 1.82.
After knock-down of CG13841 [DRSC14691], the screen gave droplet/nuclear area B-score, replicate 1 = 0.741.
Against CG13924 [DRSC08393], the entry reads droplet/nuclear area B-score, replicate 1 = -1.13.
CG3592 [DRSC18315] scored droplet/nuclear area B-score, replicate 1 = -0.716.
Knock-down of MESR3 (Misexpression suppressor of ras 3) [DRSC02463] came out at: droplet/nuclear area B-score, replicate 1 = 0.282.
CG17085 (retired record) [DRSC02565] scored droplet/nuclear area B-score, replicate 1 = -0.256.
CG17085 (retired record) [DRSC02566] gave droplet/nuclear area B-score, replicate 1 = -0.138.
Knock-down of MetRS (Methionyl-tRNA synthetase) [DRSC22533] came out at: droplet/nuclear area B-score, replicate 1 = -0.00933.
After knock-down of RpL18 (Ribosomal protein L18) [DRSC11016], the record shows droplet/nuclear area B-score, replicate 1 = 1.65.
Against RpL18 (Ribosomal protein L18) [DRSC22323] the deposit lists droplet/nuclear area B-score, replicate 1 = 4.54.
For Fem-1 [DRSC07322], the entry reads droplet/nuclear area B-score, replicate 1 = -0.642.
With knock-down of ncm (nucampholin) [DRSC02179], the screen gave droplet/nuclear area B-score, replicate 1 = 0.0333.
Larp7 (La related protein 7) [DRSC18798] gave droplet/nuclear area B-score, replicate 1 = -0.258.
For Sec6 (Secretory 6) [DRSC06932], the values are droplet/nuclear area B-score, replicate 1 = -0.0176.
After knock-down of CG10405 [DRSC14238], the screen gave droplet/nuclear area B-score, replicate 1 = -0.762.
Knock-down of CG6763 [DRSC16110] came out at: droplet/nuclear area B-score, replicate 1 = -0.66.
With knock-down of Ranbp16 [DRSC20160], the record shows droplet/nuclear area B-score, replicate 1 = 0.446.
For 5PtaseI (Inositol polyphosphate-5-phosphatase type I) [DRSC16269], the entry reads droplet/nuclear area B-score, replicate 1 = 0.424.
Depletion of 5PtaseI (Inositol polyphosphate-5-phosphatase type I) [DRSC22090] resulted in: droplet/nuclear area B-score, replicate 1 = -0.235.
Jon65Aiii (Jonah 65Aiii) [DRSC10649] showed droplet/nuclear area B-score, replicate 1 = 0.4.
After knock-down of Spt (Spitting Image) [DRSC07123], the record shows droplet/nuclear area B-score, replicate 1 = -1.92.
After knock-down of CG30109 + CG30108 [DRSC05674] the results were droplet/nuclear area B-score, replicate 1 = -0.32.
mRpS6 (mitochondrial ribosomal protein S6) [DRSC08470] gave droplet/nuclear area B-score, replicate 1 = -0.104.
With knock-down of CG6204 [DRSC15991], the record shows droplet/nuclear area B-score, replicate 1 = 0.861.
Depletion of CG4306 [DRSC10409] gave: droplet/nuclear area B-score, replicate 1 = 0.174.
Silencing of achi (achintya) [DRSC07276] came out at: droplet/nuclear area B-score, replicate 1 = 0.0309.
After knock-down of CG33500 [DRSC09115], the record shows droplet/nuclear area B-score, replicate 1 = -2.09.

An excerpt from the list above, for reference:
Gfat1 (Glutamine:fructose-6-phosphate aminotransferase 1) [DRSC21219] — droplet/nuclear area B-score, replicate 1 = -0.463
RpLP2 (Ribosomal protein LP2) [DRSC07539] — droplet/nuclear area B-score, replicate 1 = 1.82
CG13841 [DRSC14691] — droplet/nuclear area B-score, replicate 1 = 0.741
